In patent US20250312453A1:
Results are given in words; binding and its absence hold for the method and conditions named. Some entries that bind do so weakly or less than the wild type.

B1: NCR802β-NCLD04α STAR (protein)
beta: DVQLQESGGGLVQPGGSLRLSCAASGFTFNYYHMGWVRQAPGKGPEWVSSIRSNADDTMYADSVKGRFTISRDNAKNTLYLQMNSLKAEDTALYSCARISAWRRPKEYDYLGQGTQVTVSSEDLRNVTPPKVSLFEPSKAEIANKQKATLVCLARGFFPDHVELSWWVNGKEVHSGVCTDPQAYKESNYSYCLSSRLRVSATFWHNPRNHFRCQVQFHGLSEEDKWPEGSPKPVTQNISAEAWGRADCGITSASYQQGVLSATILYEILLGKATLYAVLVSTLVVMAMVKRKNSRRDQRLPPDAHKPPGGGSFRTPIQEEQADAHSTLAKI
alpha: DVQLQESGGGLVQPGGSLRLSCTASGLTFNDYAVSWLRQAPGKEREFVATIRGSGGVTNYGASAEGRFIISRENAENTVYLQMNSLKSEDTAVYYCNARPLFGWSEEYWGQGTQVTVSSDIQNPEPAVYQLKDPRSQDSTLCLFTDFDSQINVPKTMESGTFITDKCVLDMKAMDSKSNGAIAWSNQTSFTCQDIFKETNATYPSSDVPCDATLTEKSFETDMNLNFQNLLVIVLRILLLKVAGFNLLMTLRLWSSRRDQRLPPDAHKPPGGGSFRTPIQEEQADAHSTLAKI
B2: NCR802β-NCLD04α STAR-mbIL-15 (protein)
beta: DVQLQESGGGLVQPGGSLRLSCAASGFTFNYYHMGWVRQAPGKGPEWVSSIRSNADDTMYADSVKGRFTISRDNAKNTLYLQMNSLKAEDTALYSCARISAWRRPKEYDYLGQGTQVTVSSEDLRNVTPPKVSLFEPSKAEIANKQKATLVCLARGFFPDHVELSWWVNGKEVHSGVCTDPQAYKESNYSYCLSSRLRVSATFWHNPRNHFRCQVQFHGLSEEDKWPEGSPKPVTQNISAEAWGRADCGITSASYQQGVLSATILYEILLGKATLYAVLVSTLVVMAMVKRKNSRRDQRLPPDAHKPPGGGSFRTPIQEEQADAHSTLAKI
alpha: DVQLQESGGGLVQPGGSLRLSCTASGLTFNDYAVSWLRQAPGKEREFVATIRGSGGVTNYGASAEGRFIISRENAENTVYLQMNSLKSEDTAVYYCNARPLFGWSEEYWGQGTQVTVSSDIQNPEPAVYQLKDPRSQDSTLCLFTDFDSQINVPKTMESGTFITDKCVLDMKAMDSKSNGAIAWSNQTSFTCQDIFKETNATYPSSDVPCDATLTEKSFETDMNLNFQNLLVIVLRILLLKVAGFNLLMTLRLWSSRRDQRLPPDAHKPPGGGSFRTPIQEEQADAHSTLAKI
B3: NCLD04 STAR (protein)
beta: DVQLQESGGGLVQPGGSLRLSCTASGLTFNDYAVSWLRQAPGKEREFVATIRGSGGVTNYGASAEGRFIISRENAENTVYLQMNSLKSEDTAVYYCNARPLFGWSEEYWGQGTQVTVSSEDLRNVTPPKVSLFEPSKAEIANKQKATLVCLARGFFPDHVELSWWVNGKEVHSGVCTDPQAYKESNYSYCLSSRLRVSATFWHNPRNHFRCQVQFHGLSEEDKWPEGSPKPVTQNISAEAWGRADCGITSASYQQGVLSATILYEILLGKATLYAVLVSTLVVMAMVKRKNS
alpha: DIQNPEPAVYQLKDPRSQDSTLCLFTDFDSQINVPKTMESGTFITDKCVLDMKAMDSKSNGAIAWSNQTSFTCQDIFKETNATYPSSDVPCDATLTEKSFETDMNLNFQNLLVIVLRILLLKVAGFNLLMTLRLWGGGGSGGGGSGGGGSRRDQRLPPDAHKPPGGGSFRTPIQEEQADAHSTLAKI
B4: NCLD04β-NCR802α STAR (protein)
beta: DVQLQESGGGLVQPGGSLRLSCTASGLTFNDYAVSWLRQAPGKEREFVATIRGSGGVTNYGASAEGRFIISRENAENTVYLQMNSLKSEDTAVYYCNARPLFGWSEEYWGQGTQVTVSSEDLRNVTPPKVSLFEPSKAEIANKQKATLVCLARGFFPDHVELSWWVNGKEVHSGVCTDPQAYKESNYSYCLSSRLRVSATFWHNPRNHFRCQVQFHGLSEEDKWPEGSPKPVTQNISAEAWGRADCGITSASYQQGVLSATILYEILLGKATLYAVLVSTLVVMAMVKRKNSRRDQRLPPDAHKPPGGGSFRTPIQEEQADAHSTLAKI
alpha: DVQLQESGGGLVQPGGSLRLSCAASGFTFNYYHMGWVRQAPGKGPEWVSSIRSNADDTMYADSVKGRFTISRDNAKNTLYLQMNSLKAEDTALYSCARISAWRRPKEYDYLGQGTQVTVSSDIQNPEPAVYQLKDPRSQDSTLCLFTDFDSQINVPKTMESGTFITDKCVLDMKAMDSKSNGAIAWSNQTSFTCQDIFKETNATYPSSDVPCDATLTEKSFETDMNLNFQNLLVIVLRILLLKVAGFNLLMTLRLWSSRRDQRLPPDAHKPPGGGSFRTPIQEEQADAHSTLAKI
B5: NCLD04β-NCR802α STAR-mbIL-15 (protein)
beta: DVQLQESGGGLVQPGGSLRLSCTASGLTFNDYAVSWLRQAPGKEREFVATIRGSGGVTNYGASAEGRFIISRENAENTVYLQMNSLKSEDTAVYYCNARPLFGWSEEYWGQGTQVTVSSEDLRNVTPPKVSLFEPSKAEIANKQKATLVCLARGFFPDHVELSWWVNGKEVHSGVCTDPQAYKESNYSYCLSSRLRVSATFWHNPRNHFRCQVQFHGLSEEDKWPEGSPKPVTQNISAEAWGRADCGITSASYQQGVLSATILYEILLGKATLYAVLVSTLVVMAMVKRKNSRRDQRLPPDAHKPPGGGSFRTPIQEEQADAHSTLAKI
alpha: DVQLQESGGGLVQPGGSLRLSCAASGFTFNYYHMGWVRQAPGKGPEWVSSIRSNADDTMYADSVKGRFTISRDNAKNTLYLQMNSLKAEDTALYSCARISAWRRPKEYDYLGQGTQVTVSSDIQNPEPAVYQLKDPRSQDSTLCLFTDFDSQINVPKTMESGTFITDKCVLDMKAMDSKSNGAIAWSNQTSFTCQDIFKETNATYPSSDVPCDATLTEKSFETDMNLNFQNLLVIVLRILLLKVAGFNLLMTLRLWSSRRDQRLPPDAHKPPGGGSFRTPIQEEQADAHSTLAKI

Biological target: T1, Claudin18.2 protein (UniProt P56856)
T1 sequence (looked up): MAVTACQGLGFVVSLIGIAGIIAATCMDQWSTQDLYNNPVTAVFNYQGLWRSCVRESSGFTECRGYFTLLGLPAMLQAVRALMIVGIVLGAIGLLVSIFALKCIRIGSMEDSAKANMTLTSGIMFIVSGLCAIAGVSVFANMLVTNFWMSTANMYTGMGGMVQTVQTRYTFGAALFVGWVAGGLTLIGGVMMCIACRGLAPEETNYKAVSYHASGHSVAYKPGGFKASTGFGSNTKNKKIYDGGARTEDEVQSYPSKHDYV
Assay: flow cytometry, STAR-expressing T cells stained with Claudin18.2 protein

binding, binds:
B1
B2
B3
B4
B5
